2 sequences from publication PMC3573115 can be followed below.

In data set [1] the target is T1, Har-Rel-D (mature Har-Relish) (Helicoverpa armigera) (UniProt G3LF45).
T1 sequence (looked up): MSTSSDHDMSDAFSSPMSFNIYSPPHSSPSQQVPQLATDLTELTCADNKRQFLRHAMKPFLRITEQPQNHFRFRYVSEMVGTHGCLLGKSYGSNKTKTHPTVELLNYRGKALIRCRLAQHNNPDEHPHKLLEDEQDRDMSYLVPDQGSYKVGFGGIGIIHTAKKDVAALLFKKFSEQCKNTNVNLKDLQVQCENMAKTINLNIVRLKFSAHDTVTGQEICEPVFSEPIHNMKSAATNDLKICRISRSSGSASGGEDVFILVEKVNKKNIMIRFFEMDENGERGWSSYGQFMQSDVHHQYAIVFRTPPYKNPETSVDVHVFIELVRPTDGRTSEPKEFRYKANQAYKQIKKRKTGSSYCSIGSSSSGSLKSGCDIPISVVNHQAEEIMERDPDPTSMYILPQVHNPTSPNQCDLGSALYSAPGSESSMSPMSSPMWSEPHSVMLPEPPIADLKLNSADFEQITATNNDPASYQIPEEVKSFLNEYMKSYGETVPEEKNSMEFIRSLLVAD
Put plainly: EMSA. The conditions noted are these: reduced by 100-fold excess unlabeled LP1; 10 mM Hepes-K+ pH 7.9, 10% glycerol, 50 mM KCl, 4 mM MgCl2, 1 mM DTT, 0.5 mg/ml BSA, 0.1 mM PMSF, 1 ug poly(dI/dC), 27 C 30 min; 5% native PAGE in 1x TBE; protein translated in vitro; residues 1-509; label: 32P (Klenow fill-in with [alpha-32P]dATP). A general note: Mobility shift assays separate free from complexed probe on a gel.

For data set [2], the target named is T1, Har-Rel-D (mature Har-Relish) (Helicoverpa armigera). Put plainly: competition with a labelled probe. The conditions noted are these: 100-fold excess unlabeled nS against labeled LP1; 10 mM Hepes-K+ pH 7.9, 10% glycerol, 50 mM KCl, 4 mM MgCl2, 1 mM DTT, 0.5 mg/ml BSA, 0.1 mM PMSF, 1 ug poly(dI/dC), 27 C 30 min; 5% native PAGE in 1x TBE; protein translated in vitro; residues 1-509; label: unlabeled.

Construct, isoform or probe ends are uncertain for at least one entry. For some assays here: A negative result means that nothing was seen under these conditions. Where a protein sequence is shown, tags need not be part of it.

As to “TTTGGGGGGAATCCCCCCCATCTGGCATCACTGAATA (double strand) [LP1]”, in data set [1], the binding result is given as “binds”.

Take “TTAAGATTATTTACGCAACCGCATTGCAAAATAAAAC (double strand) [nS]”: in data set [2], the binding result is given as “no binding”.
